Taken from: PubChem BioAssay AID1259405 (NCATS, 2018)
In all, the deposit lists about 50,000 reagents; shown is a part drawn at random. About 4,000 of all reagents (8%) count as active. 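Mouse siRNA library applied to hamster cells; one well for each siRNA.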 Reagents against one gene are numbered here.

- Purpose: 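Silenced genes that increase secreted GFP made by CHO cells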 (primary screen)
- Cell system: Chinese hamster CHO-K1 ovary cells with stable secreted eGFP expression
- Reagent: single siRNA against mouse genes, 0.8 pmol siRNA per well (2 µl of 400 nM stock)
- Timing: 3 days
- Read-out: 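Per-well intracellular GFP measured by laser scanning cytometry, plus viability from ATP luminescence, each relative to plate median of non-targeting control wells, in %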
- Scale: GFP, % of control: higher = more GFP per well, higher productivity; viability (ATP), % of control: higher = more viable cells (more ATP)
- Active means: 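a knock-down is called active if GFP reaches 120% or more of non-targeting control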

| gene knocked down | reagent no. | GFP, % of control | viability (ATP), % of control | Call |
| --- | --- | --- | --- | --- |
| En1 | 1 | 70.5 | 98.3 | inactive |
| En1 | 2 | 109 | 83 | inactive |
| En1 | 3 | 75.3 | 33.1 | inactive |
| Pdcd1lg2 | 1 | 50.4 | 39.8 | inactive |
| Pdcd1lg2 | 2 | 94.7 | 68.6 | inactive |
| Pdcd1lg2 | 3 | 83.7 | 75.6 | inactive |
| Zfp58 | 1 | 43.3 | 53.8 | inactive |
| Zfp58 | 2 | 48.6 | 75.3 | inactive |
| Zfp58 | 3 | 84.2 | 82.3 | inactive |
| Ptgdr2 | 1 | 92.1 | 70.7 | inactive |
| Ptgdr2 | 2 | 92 | 82.8 | inactive |
| Ptgdr2 | 3 | 84.4 | 80.6 | inactive |
| Rtn4rl2 | 1 | 90.9 | 66.1 | inactive |
| Rtn4rl2 | 2 | 46.5 | 26.8 | inactive |
| Rtn4rl2 | 3 | 27.3 | 35.6 | inactive |
| Sephs1 | 1 | 117 | 114 | inactive |
| Sephs1 | 2 | 88 | 152 | inactive |
| Sephs1 | 3 | 76.7 | 72.3 | inactive |
| Reg3a | 1 | 91.9 | 77.4 | inactive |
| Reg3a | 2 | 73.8 | 65.4 | inactive |
| Reg3a | 3 | 74.3 | 58.1 | inactive |
| Dnai4 | 1 | 92.9 | 77.3 | inactive |
| Dnai4 | 2 | 65.8 | 64 | inactive |
| Dnai4 | 3 | 129 | 88.5 | active |
| Prps1l1 | 1 | 113 | 81.1 | inactive |
| Ly6g2 | 1 | 96.6 | 90.8 | inactive |
| Ly6g2 | 2 | 77 | 68.9 | inactive |
| Ly6g2 | 3 | 160 | 166 | active |
| Cmklr1 | 1 | 135 | 66.5 | active |
| Cmklr1 | 2 | 50.9 | 63.7 | inactive |
| Cmklr1 | 3 | 85.8 | 61.5 | inactive |
| Dnal4 | 1 | 109 | 63.1 | inactive |
| Dnal4 | 2 | 66 | 90.4 | inactive |
| Nprl2 | 1 | 135 | 109 | active |
| Nprl2 | 2 | 84.1 | 95.1 | inactive |
| Nprl2 | 3 | 72.2 | 94.2 | inactive |
| Gtf3c6 | 1 | 80 | 87.1 | inactive |
| Gtf3c6 | 2 | 86.2 | 95.6 | inactive |
| Gtf3c6 | 3 | 67.3 | 50.8 | inactive |
| Pstk | 1 | 62.4 | 58.6 | inactive |
| Pstk | 2 | 77.2 | 76.3 | inactive |
| Pstk | 3 | 61.8 | 77.3 | inactive |
| Cpxm2 | 1 | 95.8 | 104 | inactive |
| Cpxm2 | 2 | 42.8 | 38.7 | inactive |
| Cpxm2 | 3 | 59.5 | 68.6 | inactive |
| Corin | 1 | 88.1 | 88.5 | inactive |
| Corin | 2 | 48.3 | 33.4 | inactive |
| Corin | 3 | 51.6 | 59.9 | inactive |
| Kif5a | 1 | 97.6 | 82.3 | inactive |
| Kif5a | 2 | 117 | 97.6 | inactive |
| Psmb11 | 1 | 146 | 122 | active |
| Psmb11 | 2 | 180 | 53.4 | active |
| Psmb11 | 3 | 128 | 89.8 | active |
| Rnft1 | 1 | 81.3 | 101 | inactive |
| Rnft1 | 2 | 50.9 | 55.6 | inactive |
| Rnft1 | 3 | 43.8 | 33.5 | inactive |
| Plscr2 | 1 | 55.5 | 48 | inactive |
| Plscr2 | 2 | 77 | 97.8 | inactive |
| Plscr2 | 3 | 72.3 | 63.1 | inactive |
| Lce1m | 1 | 79.5 | 53.4 | inactive |
| Lce1m | 2 | 132 | 133 | active |
| Lce1m | 3 | 140 | 127 | active |
| Mid1 | 1 | 63 | 81.7 | inactive |
| Mid1 | 2 | 63.5 | 75.9 | inactive |
| Mid1 | 3 | 61.4 | 64.8 | inactive |
| Ube2k | 1 | 54.1 | 34.5 | inactive |
| Ube2k | 2 | 86.3 | 81.3 | inactive |
| Ube2k | 3 | 79.9 | 102 | inactive |
| Or11g1 | 1 | 37.9 | 47.6 | inactive |
| Or11g1 | 2 | 88.1 | 85.1 | inactive |
| Or11g1 | 3 | 54.8 | 65.9 | inactive |
| H2al1m | 1 | 89.9 | 83.3 | inactive |
| H2al1m | 2 | 83.6 | 64.6 | inactive |
| H2al1m | 3 | 71.5 | 76.9 | inactive |
| Tmem269 | 1 | 125 | 87.7 | active |
| Tmem269 | 2 | 75.2 | 49.2 | inactive |
| Tmem269 | 3 | 79.3 | 78.1 | inactive |
| Rsad2 | 1 | 51.1 | 53.9 | inactive |
| Rsad2 | 2 | 61.6 | 58.9 | inactive |
| Rsad2 | 3 | 89.9 | 70.7 | inactive |
| Crybb2 | 1 | 96 | 71.3 | inactive |
| Crybb2 | 2 | 88.4 | 77.1 | inactive |
| Crybb2 | 3 | 140 | 133 | active |
| Arap1 | 1 | 47.7 | 83 | inactive |
| Arap1 | 2 | 83.4 | 88.4 | inactive |
| Arap1 | 3 | 42.9 | 47.4 | inactive |
| Lactb2 | 1 | 84.9 | 48.7 | inactive |
| Lactb2 | 2 | 94.3 | 96.7 | inactive |
| Lactb2 | 3 | 68.1 | 48.7 | inactive |
| Wasf3 | 1 | 86.3 | 63 | inactive |
| Wasf3 | 2 | 65.7 | 67 | inactive |
| Wasf3 | 3 | 85.8 | 73.1 | inactive |
| Or5m11b | 1 | 51.1 | 61.2 | inactive |
| Or5m11b | 2 | 78.1 | 93 | inactive |
| Or5m11b | 3 | 46.6 | 57.5 | inactive |
| Kics2 | 1 | 164 | 71.9 | active |
| Kics2 | 2 | 94.1 | 61.2 | inactive |
| Kics2 | 3 | 120 | 109 | inactive |
| Nfatc4 | 1 | 72.3 | 64.5 | inactive |
| Nfatc4 | 2 | 81.4 | 96 | inactive |
| Nfatc4 | 3 | 90.5 | 129 | inactive |
| Kctd18 | 1 | 33.2 | 33.8 | inactive |
| Kctd18 | 2 | 73.9 | 74.8 | inactive |
| Kctd18 | 3 | 62.4 | 74.2 | inactive |
| Mthfsd | 1 | 71 | 112 | inactive |
| Mthfsd | 2 | 55.3 | 80.1 | inactive |
| Mthfsd | 3 | 25.3 | 58.2 | inactive |

Reagents above with an active call (12):
| gene knocked down | reagent no. | GFP, % of control | viability (ATP), % of control | Call |
| --- | --- | --- | --- | --- |
| Dnai4 | 3 | 129 | 88.5 | active |
| Ly6g2 | 3 | 160 | 166 | active |
| Cmklr1 | 1 | 135 | 66.5 | active |
| Nprl2 | 1 | 135 | 109 | active |
| Psmb11 | 1 | 146 | 122 | active |
| Psmb11 | 2 | 180 | 53.4 | active |
| Psmb11 | 3 | 128 | 89.8 | active |
| Lce1m | 2 | 132 | 133 | active |
| Lce1m | 3 | 140 | 127 | active |
| Tmem269 | 1 | 125 | 87.7 | active |
| Crybb2 | 3 | 140 | 133 | active |
| Kics2 | 1 | 164 | 71.9 | active |
